This assay can be described thus: qHTS Assay for Modulators of Lamin A Splicing. The note with it: HeLa LMNA splicing GFP/RFP minigene ratio, 48 h. The method in brief:
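S3 HeLa cells stably expressing lamin A-EGFP splicing minigene plus DsRed2, 600 cells/well, 48 h compound exposure at 37C. Laser-scanning cytometry; analysed as GFP (500-530 nm)/RFP (575-640 nm) total intensity ratio; 0.5% DMSO vehicle.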

Setting [1] is: measured here: GFP splicing reporter channel.
[2] abbreviates: measured here: RFP viability control channel.

The list shows a part of the results. These are further read-outs of the screen, such as a control signal, another cell line or another target. No call is given for them. The list favours compounds with an active or inconclusive main result. Potencies come from curve fits of mixed quality, noted in brackets.

For the compound `Cc1ccccc1-n1cc(CNC(=O)CCc2nnc(CCc3ccccc3)o2)cn1`, the AC50 under setting [1] was 0.00316 µM [falling, full curve, poor fit].

Take `O=C(NCc1ccco1)c1ccc(Oc2ccccc2)cc1`: the AC50 under setting [2] is 35.5 µM [rising, single point].

Consider `Cc1ccc(CC(=O)Nc2ccc(F)c([N+](=O)[O-])c2)cc1`, for which, under setting [2], the AC50 was 11.2 µM [rising, partial curve, poor fit].

As to `CCCCCCOC(=O)Nc1ccc(S(=O)(=O)Nc2cccc([N+](=O)[O-])c2)cc1`, the AC50 under setting [2] was 12.6 µM [rising, partial curve].

For the compound `CC(C)C(=O)Nc1cccc(C(=O)Nc2ccccc2C(=O)O)c1`, under setting [2], the AC50 is 0.891 µM [falling, full curve, poor fit].

For `CC(N)=NCc1cccc(CN)c1`, under setting [1], the AC50 was 0.000891 µM [falling, full curve, poor fit].

For the compound `COc1ccc(CCn2c(C(C)C)nc3c(c(=O)c4ccccc4n3C)c2=O)cc1`, the AC50 is 7.94 µM [rising, partial curve, poor fit] under setting [1] and 10 µM [rising, partial curve] under setting [2].

Regarding `CCOc1ccc(CNC(=O)C2CCN(S(=O)(=O)c3ccc4c(ccn4C)c3)CC2)cc1`, the AC50 by setting is: under setting [1], 1.78 µM [falling, full curve]; under setting [2], 1.41 µM [falling, partial curve, poor fit].

As for `Cc1ccc(C2C3=C(CC(C)(C)CC3=O)NC3=C2C(=O)c2ccccc23)cc1` (stereo not given), under setting [2], the AC50 was 20 µM [rising, single point].

As to `COc1ccc(CCn2c(SCCN3CCCCC3)nc3ccccc3c2=O)cc1OC`, the AC50 was 0.0891 µM [falling, full curve, poor fit] under setting [1] and 0.01 µM [falling, full curve, poor fit] under setting [2].

On to `Cc1ccccc1NC(=O)CSc1cn(CC(=O)N2CCCC2)c2ccccc12`, for which, under setting [1], the AC50 was 0.00398 µM [rising, full curve, poor fit].

`COc1ccc(C(CC(=O)c2ccccc2)S(=O)(=O)c2ccc(C)cc2)cc1` (stereo not given): the AC50 under setting [1] is 35.5 µM [falling, single point] and the AC50 under setting [2] is 17.8 µM [falling, partial curve].

Take `CCCc1nn2c(N)c(/C=C3\C=Nc4ccccc43)c(=O)nc2s1`: under setting [2], the AC50 is 7.08 µM [rising, partial curve, poor fit].

Consider `Cc1ccccc1C(=O)/C(C#N)=N/Nc1c(C)n(C)n(-c2ccccc2)c1=O`, for which, under setting [2], the AC50 was 6.31 µM [rising, full curve].

Consider `CC(C)c1cc(=O)oc2c3c4c(cc12)CCCN4CCC3`, for which the AC50 under setting [1] was 1.12 µM [rising, full curve, poor fit] and the AC50 under setting [2] was 10 µM [rising, partial curve, poor fit].

For `Cc1cccc(NC(=S)N/N=C/c2ccc3c(c2)OCO3)c1`, the AC50 reads like this: under setting [1], 22.4 µM [rising, partial curve, poor fit]; under setting [2], 25.1 µM [rising, partial curve].

For the compound `O=C(COc1ccc(-c2nnco2)cc1)N1CCN(S(=O)(=O)c2ccc3ccccc3c2)CC1`, the AC50 under setting [2] was 25.1 µM [rising, single point].

With `CCN(C(=O)COC(=O)c1cccnc1Nc1cccc(C(F)(F)F)c1)C1CCS(=O)(=O)C1` (stereo not given), the AC50 under setting [1] was 11.2 µM [rising, single point].

Turning to `CC1(C)O[C@@H]2C[C@H]3[C@H]4C[C@H](F)C5=CC(=O)C=C[C@@]5(C)[C@@H]4[C@H](O)C[C@]3(C)[C@]2(C(=O)CO)O1`, under setting [2], the AC50 is 0.001 µM [rising, full curve, poor fit].

Consider `S=C(NCc1ccc(Cl)cc1Cl)NC1CCCCC1`, for which the AC50 runs as follows: under setting [1], 6.31 µM [rising, partial curve]; under setting [2], 15.8 µM [rising, partial curve].

Take `CCOc1ccc([N+](=O)[O-])c(N)c1`: the AC50 is 0.355 µM [falling, partial curve, poor fit] under setting [1] and 0.0562 µM [falling, full curve] under setting [2].

Regarding `CCC(C)Nc1nc(-c2ccc3c(c2)NC(=O)CO3)cs1` (stereo not given), the AC50 is, setting by setting: under setting [1], 12.6 µM [rising, single point]; under setting [2], 14.1 µM [rising, single point].

As to `Cc1ccc(S(=O)(=O)N2CCCCC2)cc1C(=O)Nc1ccc2cn[nH]c2c1`, the AC50 under setting [2] is 35.5 µM [rising, single point].

For `Cc1ccccc1CN1C[C@@H]2C[C@@H](c3cnc(N4CCOCC4)s3)N3CCC[C@@]23C1=O`, the AC50 under setting [1] is 11.2 µM [falling, partial curve, poor fit] and the AC50 under setting [2] is 10 µM [falling, partial curve].

Regarding `O=C(/C=C/c1ccccc1)Nc1nnc(-c2ccco2)o1`, the AC50 under setting [2] is 35.5 µM [rising, partial curve, poor fit].

On to `Cc1ccc2ncccc2c1NS(=O)(=O)c1ccccc1`, for which, under setting [2], the AC50 was 31.6 µM [rising, single point].

Turning to `O=C(COc1ccccc1)Nc1ccncc1`, the AC50 runs as follows: under setting [1], 0.501 µM [falling, full curve, poor fit]; under setting [2], 28.2 µM [falling, partial curve, poor fit].

For the compound `COc1ccc(C(=O)NCC(c2ccc(N(C)C)cc2)N2CCCC2)c(OC)c1` (stereo not given), under setting [2], the AC50 was 1.78 µM [rising, single point].

For the compound `COc1ccccc1OCC(=O)Nc1nc2c(s1)CC(C)CC2` (stereo not given), the AC50 under setting [2] is 0.0112 µM [falling, full curve].

Regarding `CCC(C(=O)NC1CCCCC1)n1c(SCc2ccc(F)cc2)nc2ccncc21` (stereo not given), under setting [2], the AC50 is 8.91 µM [rising, partial curve].

Regarding `CC(=O)c1ccc(NS(=O)(=O)c2cc(-c3cc(C)no3)ccc2C)cc1`, under setting [2], the AC50 was 0.501 µM [rising, full curve, poor fit].

Turning to `O=S(=O)(/C=C/c1ccccc1)N1CCN(c2ccc(F)cc2)CC1`, the AC50 by setting is: under setting [1], 22.4 µM [rising, single point]; under setting [2], 35.5 µM [rising, single point].

Turning to `COc1ccc(N=NC2=C(O)CC(C)(C)CC2=O)cc1`, under setting [1], the AC50 was 7.94 µM [rising, partial curve, poor fit].

`Cc1cccc(/N=C/c2c(O)[nH]c3ccccc23)n1`: the AC50 under setting [1] was 15.8 µM [rising, single point].

On to `CCOC(=O)/C(=C\c1ccc([N+](=O)[O-])o1)NC(=O)c1ccccc1`, for which the AC50 under setting [1] is 14.1 µM [falling, single point] and the AC50 under setting [2] is 15.8 µM [falling, partial curve, poor fit].

As for `Cc1cc(NS(=O)(=O)c2ccc(NC(=O)CSc3nnc(-c4ccco4)n3C)cc2)nc(C)n1`, the AC50 reads like this: under setting [1], 1.26 µM [rising, full curve, poor fit]; under setting [2], 0.891 µM [rising, full curve, poor fit].

Take `O=C(CCl)NC(=O)NC12CC3CC(CC(C3)C1)C2`: the AC50 under setting [2] is 12.6 µM [rising, partial curve].

`CCCN(CC(=O)c1cc(C)n(C)c1C)S(=O)(=O)c1cccc(C(F)(F)F)c1`: the AC50 is, setting by setting: under setting [1], 25.1 µM [rising, single point]; under setting [2], 35.5 µM [rising, single point].

`Cc1c(Br)c(C(F)(F)F)nn1CC(=O)NCCCn1ccnc1`: the AC50 is 28.2 µM [falling, partial curve, poor fit] under setting [1] and 0.002 µM [falling, full curve, poor fit] under setting [2].

`COCCn1c(C)cc(C(=O)CSc2nnc(C)s2)c1C`: the AC50 under setting [1] was 6.31 µM [rising, full curve, poor fit].

Turning to `CC(=O)/C(=N\Nc1ccc(C)cc1)N1CCOCC1`, the AC50 under setting [2] was 0.0355 µM [falling, full curve, poor fit].

For `CCc1ccc(NC(=O)CSC2=Nc3ccccc3C3=NC(CCC(=O)NCCc4ccccc4)C(=O)N23)cc1` (stereo not given), the AC50 by setting is: under setting [1], 35.5 µM [falling, single point]; under setting [2], 12.6 µM [falling, partial curve, poor fit].

For the compound `O=C(c1ccco1)N1CCN(c2ncnc3c2[nH]c2ccc(Br)cc23)CC1`, the AC50 is, setting by setting: under setting [1], 35.5 µM [rising, single point]; under setting [2], 35.5 µM [rising, single point].

As for `CCn1c(COc2ccc(Cl)cc2)nnc1SC1CCc2ccccc2C1=O` (stereo not given), the AC50 under setting [2] is 3.98 µM [rising, full curve, poor fit].

For the compound `O=S(=O)(c1ccc(N2CCC(c3ccc(Cl)cc3)=N2)cc1)N(CCO)CCO`, the AC50 was 15.8 µM [rising, single point] under setting [1] and 35.5 µM [rising, single point] under setting [2].

Turning to `CC(=O)c1c(C)[nH]c(C(=O)Nc2nc(-c3ccc(-c4ccccc4)cc3)cs2)c1C`, the AC50 is, setting by setting: under setting [1], 28.2 µM [falling, single point]; under setting [2], 1.78 µM [rising, partial curve].

Take `CN1CC(c2ccccc2Cl)C2(COc3ccccc3C2=O)C12C(=O)Nc1ccccc12` (stereo not given): the AC50 runs as follows: under setting [1], 35.5 µM [falling, single point]; under setting [2], 35.5 µM [falling, single point].

For `COc1cccc(C=Nc2ccccc2C(=O)Nc2ccccc2)c1O`, the AC50 is, setting by setting: under setting [1], 11.2 µM [rising, partial curve]; under setting [2], 17.8 µM [rising, partial curve].

Consider `N#Cc1ccccc1S(=O)(=O)N1CCN(c2cnccn2)CC1`, for which, under setting [1], the AC50 is 39.8 µM [rising, partial curve].

As to `CCS(=O)(=O)c1ncc(N(Cc2ccco2)Cc2sccc2C)c(C(=O)Nc2ccc(C)cc2C)n1`, under setting [1], the AC50 is 0.0112 µM [rising, full curve, poor fit].

As for `Cn1c2ccccc2c2c(C(=O)N3CCN(c4ccc(F)cc4)CC3)cn(C3CCCC3)c(=O)c21`, the AC50 was 15.8 µM [rising, single point] under setting [1] and 22.4 µM [rising, single point] under setting [2].

Regarding `COc1ccccc1NC(=O)Cc1nn(C)c(=O)c2ccccc12`, under setting [2], the AC50 was 3.16 µM [rising, single point].

The values are drawn from PubChem BioAssay AID1487 (National Center for Advancing Translational Sciences (NCATS), 2009).
